Test results reported in patent US5128447A (A. Menarini Industrie Farmaceutiche Riunite S.r.l., priority 1989, dated 1992).
HELM strings list residues between dots; [ac] is acetyl, [am] amide, other brackets name non-standard units.

Test: solid-phase peptide synthesis
Conditions: whole synthesis, UV 210 nm, scale of the general procedure 2.0 g MBHA resin, 1.0 g Fmoc amide resin

Substance | final HPLC purity [%]
PEPTIDE1{D.Y.[dW].V.[dW].[dW].[dW].[am]}$$$$V2.0 | 98
PEPTIDE1{R.D.Y.[dW].V.[dW].[dW].R.[am]}$$$$V2.0 | 98.0
